Experimental data published in patent US20080280293A1.
These are yes or no findings as the source states them, for the method shown. Binding seen in cells or lysates may run through a third protein. Some binding calls cover weakened binding; strength is not graded here. Where a sequence is shown, tags or fusion partners need not be part of it.

Sequences of proteins named here, by UniProt entry; tags and fusion partners are left off. A change or cut given only in a name is not applied to a line headed by its entry.
UniProt O60603: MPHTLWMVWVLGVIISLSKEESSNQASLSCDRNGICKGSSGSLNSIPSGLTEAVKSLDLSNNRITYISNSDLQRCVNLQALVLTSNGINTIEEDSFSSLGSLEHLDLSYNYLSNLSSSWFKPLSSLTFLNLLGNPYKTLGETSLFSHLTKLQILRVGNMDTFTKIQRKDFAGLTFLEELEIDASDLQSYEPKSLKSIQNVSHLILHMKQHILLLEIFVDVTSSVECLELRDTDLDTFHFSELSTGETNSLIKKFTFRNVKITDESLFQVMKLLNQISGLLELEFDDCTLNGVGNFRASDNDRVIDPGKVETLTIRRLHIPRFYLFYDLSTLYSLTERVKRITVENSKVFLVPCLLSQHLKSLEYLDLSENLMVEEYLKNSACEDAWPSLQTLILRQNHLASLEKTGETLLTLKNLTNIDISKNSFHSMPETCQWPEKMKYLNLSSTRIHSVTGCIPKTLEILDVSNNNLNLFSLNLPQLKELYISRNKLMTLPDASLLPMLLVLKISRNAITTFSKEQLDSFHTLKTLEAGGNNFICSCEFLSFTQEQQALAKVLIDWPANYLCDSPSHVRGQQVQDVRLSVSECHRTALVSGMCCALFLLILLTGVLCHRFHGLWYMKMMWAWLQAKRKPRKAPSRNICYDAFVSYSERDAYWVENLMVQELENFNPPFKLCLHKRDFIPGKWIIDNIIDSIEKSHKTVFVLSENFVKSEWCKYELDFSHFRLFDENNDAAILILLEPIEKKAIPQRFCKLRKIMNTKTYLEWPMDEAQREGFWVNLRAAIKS

What was measured:
[1] = molecular target: T1, HA-tag-fused TLR1 (human) (UniProt Q15399); assay: co-immunoprecipitation from transfected COS7 cells: IP with FLAG antibody, western blot with HA antibody
T1 sequence: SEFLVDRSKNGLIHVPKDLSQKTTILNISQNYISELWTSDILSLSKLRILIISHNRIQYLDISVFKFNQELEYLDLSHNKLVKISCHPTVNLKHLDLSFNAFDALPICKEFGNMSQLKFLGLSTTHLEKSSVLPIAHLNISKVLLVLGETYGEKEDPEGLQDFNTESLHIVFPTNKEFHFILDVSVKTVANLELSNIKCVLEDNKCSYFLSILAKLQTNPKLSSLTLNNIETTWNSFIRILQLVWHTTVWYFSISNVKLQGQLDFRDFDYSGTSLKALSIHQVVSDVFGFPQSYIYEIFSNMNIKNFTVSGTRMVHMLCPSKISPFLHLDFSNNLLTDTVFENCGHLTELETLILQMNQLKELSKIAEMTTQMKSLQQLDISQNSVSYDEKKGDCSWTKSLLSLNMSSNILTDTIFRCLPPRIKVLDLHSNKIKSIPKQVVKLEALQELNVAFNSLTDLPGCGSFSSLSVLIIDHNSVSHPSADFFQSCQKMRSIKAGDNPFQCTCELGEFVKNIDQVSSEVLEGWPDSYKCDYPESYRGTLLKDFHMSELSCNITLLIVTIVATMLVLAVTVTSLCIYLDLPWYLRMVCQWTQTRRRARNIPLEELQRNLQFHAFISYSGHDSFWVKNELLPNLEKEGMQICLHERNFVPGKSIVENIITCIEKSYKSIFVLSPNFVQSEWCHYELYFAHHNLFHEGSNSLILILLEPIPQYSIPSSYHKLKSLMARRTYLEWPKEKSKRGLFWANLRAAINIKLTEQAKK

[2] = molecular target: HA-tag-fused TLR2 (human) (UniProt O60603); assay: as above
[3] = molecular target: intracellular domain of TLR2 fused with S-tag (human); assay: co-immunoprecipitation from co-transfected COS7 cells: IP with S-Protein, western blot with S-Protein or anti-FLAG antibody

Measured: binding

B1: FLAG-tag-fused galectin-2 (protein, not shown: small tags and cut ends)
chain: MTGELEVKNMDMKPGSTLKITGSIADGTDGFVINLGQGTDKLNLHFNPRFSESTIVCNSLDGSNWGQEQREDHLCFSPGSEVKFTVTFESDKFKVKLPDGHELTFPNRLGHSHLSYLSVRGGFNMSSFKLKE
binds: all assays above
